Assay results reported in PubChem BioAssay AID540276 (National Center for Advancing Translational Sciences (NCATS), 2011).
Where “and” joins values, the source holds several entries; their conditions need not be identical. Identical values can stand only once. About 5,400 (1.8%) of roughly 300,000 compounds were called active. The inconclusive results got no clear call from the source; some entries with a clear call stand among them for comparison. The call rests on the fitted dose curve; tested in HEK293 cells. Where the call is inconclusive, the potency comes from a doubtful curve fit.

experiment: qHTS for inhibitors of binding or entry into cells for Marburg Virus; settings: Marburg virus pseudotyped entry inhibition, cell reporter; activity change, negative = inhibition: at 37.8 µM (top of the series) unless noted
On the % scale 0 is the no-effect control and ±100 the full control effect; potency means the concentration at half of the fitted maximal effect.

SMILES	Potency	activity change, negative = inhibition
CCc1cc2c(=O)[nH]c(-c3ccccn3)nc2s1	active: 6.31 µM	–
COCCn1nnnc1C(c1ccc(OC)cc1OC)N1CCN(c2ccccc2)CC1 (configuration not stated)	inconclusive: 1.26 µM [activator, single point]	–
Cc1cc(C(=O)N/N=C/c2ccc(-c3ccc(C)c(Cl)c3)o2)n[nH]1	inconclusive: 6.31 µM [inhibitor, partial curve, poor fit]	–
CN(C)c1ccc(/C=N\NC(=O)c2ccc(Cn3cc(Cl)cn3)cc2)cc1	inconclusive: 1.64 µM [inhibitor, partial curve, poor fit]	–
CC[C@]12C=CCN3CCC4(c5cc(Br)c(OC)cc5N(C)C4[C@@](O)(C(=O)OC)[C@@H]1OC(C)=O)C32 (some centres not stated)	inactive	–
CCCN1CCC[C@@H]2Cc3nc(N)ncc3C[C@H]21	inconclusive: 11.2 µM [inhibitor, partial curve] and inconclusive: 7.3 µM [inhibitor, partial curve, poor fit]	–
Cc1ccc(N(CC(=O)NC2CCCCC2)C(=O)c2ccc(C)s2)cc1	inconclusive: 29.1 µM [inhibitor, single point]	–
O=C(COC(=O)c1ccccc1SCC(=O)N1CCCC1)Nc1ccccc1	inactive	–
Cc1c(/C(O)=C2/C(=O)C(=O)N(CCN3CCOCC3)C2c2ccccn2)cnn1-c1ccccc1 (configuration not stated)	inconclusive: 1.12 µM [inhibitor, full curve, poor fit]	–
Cc1ccc(NC(=S)N2CCOCC2)cc1	inactive	–
Cc1cc2c(=O)n(Cc3ccco3)c(SCC(=O)N3CCCc4ccccc43)nc2s1	inconclusive: 29.1 µM [inhibitor, single point]	–
CCc1cccc(NC(=O)c2cc3c(=O)[nH]c4ccccc4c3n2C)c1	inactive	–
COCCCNC(=S)NC1CC2CCC(C1)N2Cc1ccccc1 (configuration not stated)	inconclusive: 0.562 µM [inhibitor, full curve, poor fit]	–
Oc1ccc2ccccc2c1CN1CCCCC1	inactive	–
O=C(Nc1nnc(SCc2ccccn2)s1)C1CC(=O)N(c2ccc(F)cc2)C1 (configuration not stated)	inconclusive: 35.5 µM [inhibitor, single point]	–
Cc1ccc(NC(=O)c2cc(NC(=O)c3ccco3)ccc2N2CCCCC2)cc1	inconclusive: 3.55 µM [inhibitor, single point]	–
CC(=O)NCC(=O)N1CCCC(C(=O)c2ccc(Oc3ccccc3)cc2)C1 (configuration not stated)	inactive	–
COc1ccc(NC(=O)/C(=C\c2ccc3c(c2)OCO3)NC(C)=O)cc1	inconclusive: 14.1 µM [activator, single point]	–
O=C(NC(=S)Nc1ccc(C(=O)N2CCOCC2)cc1)c1ccc([N+](=O)[O-])cc1	inconclusive: 4.11 µM [inhibitor, single point]	–
COc1ccc(CN(C(=O)c2snc(C(N)=O)c2N)C(C(=O)NC2CCCC2)c2ccc(OC)cc2)cc1 (configuration not stated)	inactive	–
CC(C)CN(C(=O)c1ccc(=O)n(C)n1)c1nc2ccccc2s1	inactive	–

SMILES	Potency	activity change, negative = inhibition
COc1ccc(NC(=S)Nc2ccc(C)c(S(=O)(=O)N3CCCCC3)c2)cc1	active: 14.6 µM	–
Cn1c(-c2ccc(Cl)cc2)cnc1NCc1cc2c(cc1[N+](=O)[O-])OCO2	inconclusive: 2.59 µM [inhibitor, full curve]	–
Clc1ccc(Nc2c(-c3cccs3)nc3ccc(Cl)cn23)cc1	inconclusive: 11.2 µM [activator, partial curve, poor fit]	–
Cc1ccc(C(=O)Nc2ncc3c(Cl)cccc3n2)cc1	inconclusive: 8.91 µM [inhibitor, partial curve, poor fit]	–
CC(=O)N(C)c1ccc(NC(=O)Nc2ccc(C)c(C)c2)cc1	inconclusive: 10 µM [activator, partial curve]	–
CCOc1ccc(NC(=O)CN(C)C(=O)c2ccc(=O)[nH]c2)cc1OCC	inactive	–
COc1ccc(C(=O)/C=C/c2ccccc2F)c(OC(=O)c2ccc([N+](=O)[O-])cc2)c1	inconclusive: 1.26 µM [inhibitor, single point]	–
CC(=O)NC(c1ccccc1)c1cc([N+](=O)[O-])c2cccnc2c1O (configuration not stated)	inconclusive: 14.1 µM [inhibitor, partial curve, poor fit]	–
COc1ccc(CNC(=O)CN(C(=O)c2csnn2)c2ccc3c(c2)OCCO3)cc1	inconclusive: 14.1 µM [activator, partial curve, poor fit]	–
Cc1ccc(C)c(NC(=S)Nc2cccc3cnccc23)c1	inconclusive: 3.55 µM [inhibitor, partial curve, poor fit]	–
CN=c1scc(C)n1/N=C/c1ccc(O)cc1	inconclusive: 5.01 µM [activator, single point]	–
Cn1nc(-c2ccccc2F)c2cc(C(=O)NCc3ccc(Cl)cc3)sc21	inactive	–
CC1=C(C(=O)OC(C)C)C(c2cncc(-c3ccc(F)cc3)c2)C(C#N)=C(N)O1 (configuration not stated)	inconclusive: 0.794 µM [inhibitor, partial curve, poor fit]	–
CCc1ccccc1NC(=S)N1N=CCC1c1ccccc1 (configuration not stated)	–	inconclusive: 28.4% [activator] [at 46.1 µM]
CCN(CC)c1ccc(/C=N/OCC(=O)N2CCCc3ccccc32)cc1	inactive	–
Cc1cccc(-n2c(SCC(N)=O)nc3c(c2=O)C2(CCCC2)Cc2ccccc2-3)c1	inconclusive: 1.16 µM [inhibitor, single point]	–
Cc1ccc(C)c(-c2cc(C(=O)Nc3cccnc3)c3ccccc3n2)c1	active: 11.2 µM	–
Cc1ccc(S(=O)(=O)NC(=O)Nc2nc(-c3ccc(F)c(F)c3)cs2)cc1	inconclusive: 0.794 µM [inhibitor, single point]	–
CCOC(=O)CSc1nncc2ccc(OC)c(OC)c12	inconclusive: 1.16 µM [inhibitor, single point]	–
CCc1nnc(NC(=O)CSc2nnc(COc3cccc(C)c3)o2)s1	inconclusive: 0.103 µM [inhibitor, full curve, poor fit]	–
COc1cc(-c2c(C#N)c(N)nc3c2c(C)nn3-c2ccc(C)c(C)c2)cc(OC)c1OC	active: 20.6 µM	–
